Measured values from patent US10435412B2, “Selective modulators of the activity of the GPR55 receptor: chromenopyrazole derivatives” (Consejo Superior de Investigaciones Cientificas (CSIC), priority 2015, dated 2019).
Some of these results come from one statement about several compounds together. For at least one compound, name, drawing or mass did not settle the structure.

The chains behind the UniProt entries cited, without tags or fusion partners. Where a name states a change or a piece, a line headed by the entry shows the natural chain unless it says otherwise.
UniProt Q9Y2T6: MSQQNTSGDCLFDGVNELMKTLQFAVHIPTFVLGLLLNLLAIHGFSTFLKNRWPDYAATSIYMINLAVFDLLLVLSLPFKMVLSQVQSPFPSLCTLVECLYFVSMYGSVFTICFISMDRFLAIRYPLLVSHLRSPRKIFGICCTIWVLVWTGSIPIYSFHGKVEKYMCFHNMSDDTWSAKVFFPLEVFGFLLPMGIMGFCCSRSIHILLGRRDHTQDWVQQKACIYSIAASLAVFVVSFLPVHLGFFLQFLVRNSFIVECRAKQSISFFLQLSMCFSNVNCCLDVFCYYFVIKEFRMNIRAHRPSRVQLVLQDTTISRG

Tests used:
[1] = target: T1, GPR55 receptor (Homo sapiens, UniProt Q9Y2T6); assay: GPR55 agonist activity, real-time cell impedance (xCELLigence) in hGPR55-HEK293 cells; type: cell-based
T1 construct: expressed in transfected cells
Procedure: (§1) In the present invention, the activity of the compounds of the invention on the GPR55 receptor was assessed by performing in vitro assays with real-time cell impedance measurements (xCELLigence experiments). These assays were performed on a HEK293 human embryonic kidney cell line overexpressing the recombinant GPR55 receptor in stable form (hGPR55-HEK293). The cells were seeded one day prior to carrying out the stimulation with the exemplary compounds of the present invention.
Activation of the GPR55 receptor by an agonist compound causes a cellular impedance detected by the system and compared to lysophosphatidylinositol (LPI), a reference GPR55 ligand. The effect of LPI measured at a concentration of 1 μM was set at 100%. […] Therefore, dose-response curves were determined at this time. Cell impedance values were normalized for each well, just prior to addition of the inventive compound of the invention to be evaluated.

[2] = target: T1, GPR55 receptor; assay: GPR55 antagonist activity: inhibition of LPI-mediated GPR55 stimulation (xCELLigence) in hGPR55-HEK293 cells; type: cell-based; conditions: compound at 1 μM
Procedure: as §1
The ability of the exemplary compounds of the patent to inhibit LPI-mediated GPR55 receptor stimulation has been evaluated.
Values represent the mean with a 95% confidence interval calculated with 4 independent experiments performed in duplicate. Significant differences with respect to LPI values are considered due to lack of overlap of confidence intervals.

SMILES | Type of action at the GPR55 receptor (agonist assay) [1] | Antagonism of the GPR55 agonist effect produced by LPI [2]
COc1ccc2c(c1)OC(C)(C)c1cn(CCN3CCN(C(=O)C4CCCO4)CC3)nc1-2 (stereo not shown) [Example 8, 2-(2-(4-(2-tetrahydrofuroyl)piperazinyl)ethyl)-2,4-dihydro-7-methoxy-4,4-dimethylchromeno[4,3-c]pyrazole] | partial agonists | –
COc1ccc2c(c1)OC(C)(C)c1cn(CCN3CCN(C(=O)C4CCCCC4)CC3)nc1-2 [Example 9, 2-(2-(4-cyclohexylcarbonyl-piperazinyl)ethyl)-2,4-dihydro-7-methoxy-4,4-dimethylchromeno[4,3-c]pyrazole] | partial agonists | antagonists
COc1ccc2c(c1)OC(C)(C)c1cn(CCN3CCN(C(=O)COc4ccccc4)CC3)nc1-2 [Example 7, 2-(2-(4-phenoxyacetylpiperazinyl)ethyl)-2,4-dihydro-7-methoxy-4,4-dimethylchromeno[4,3-c]pyrazole] | partial agonists | –
COc1ccc2c(c1)OC(C)(C)c1cn(CCN3CCN(C(=O)c4cccs4)CC3)nc1-2 [Example 6, 2-(2-(4-(2-thienoyl)piperazinyl)ethyl)-2,4-dihydro-7-methoxy-4,4-dimethylchromeno[4,3-c]pyrazole] | partial agonists | –
COc1ccc2c(c1)OC(C)(C)c1cn(CCN3CCN(C(=O)c4ccccc4)CC3)nc1-2 [Example 4, 2-(2-(4-benzoyl-piperazinyl)ethyl)-2,4-dihydro-7-methoxy-4,4-dimethylchromeno[4,3-c]pyrazole] | partial agonists | –
COc1ccc2c(c1)OC(C)(C)c1cn(CCN3CCN(C(=O)C(C)(C)C)CC3)nc1-2 [Example 10, 2-(2-(4-pivaloyl-piperazinyl)ethyl)-2,4-dihydro-7-methoxy-4,4-dimethylchromeno[4,3-c]pyrazole] | partial agonists | antagonists
COc1ccc2c(c1)OC(C)(C)c1cn(CCN3CCN(C(=O)c4ccco4)CC3)nc1-2 [Example 2, 2-(2-(4-(2-furoyl)piperazinyl)ethyl)-2,4-dihydro-7-methoxy-4,4-dimethylchromeno[4,3-c]pyrazole] | partial agonists | –
COc1ccc2c(c1)OC(C)(C)c1cn(CNC(=O)CN3CCN(c4ccccc4OC)CC3)nc1-2 [Example 14, 2-(2-(4-(2-methoxyphenyl)piperazinyl)acetamidomethyl)-2,4-dihydro-7-methoxy-4,4-dimethylchromeno[4,3-c]pyrazole] | partial agonists | –
